Assay results published in patent US20230128969A1, “POLYURETHANE FOAM COMPOSITIONS WITH ANTIMICROBIAL PROPERTIES” (SANITIZED AG, priority 2020, published 2023).
Where two headings read alike, the source gives them in different places.

Assay: Evaluation of foam or coating quality (quality marks)
Parameters: key: 0: no foam or coating formed; +: very bad or collapsed foam; very defective coating; ++: bad foam quality; defective coating; +++: mediocre foam or coating quality; ++++: good foam or coating quality; +++++: comparable quality with reference foam or coating
[1] = memory foam A1, 0.5 pbw (C), pbw of commercial product (active content in label)
[2] = memory foam A1, 1 pbw (C), pbw of commercial product (active content in label)
[3] = memory foam A1, 2 pbw (C), pbw of commercial product (active content in label)

O=C([O-])CC(O)C(=O)[O-].[Na+].[Na+] (racemic) [DL-Malic acid disodium salt]
Q (foam quality): ++++

O=C(O)C(O)C(O)C(=O)O (racemic) [DL-Tartaric acid]
Q (foam quality): +

O=C([O-])CC(O)(CC(=O)O)C(=O)O.[Na+] [Monosodium citrate]
Q (foam quality): +

CCCCCCCCCCCC[N+](C)(C)[O-] [N,N-Dimethyldodecylamine N-oxide (30%), N,N-Dimethyldodecylamine N-oxide]
Quality at given amount of (C) in pbw: 0

C[C@H](O)C(=O)[O-].[Na+] [Sodium L-lactate]
Q (foam quality): ++++

O=C([O-])CO.[Na+] [Sodium glycolate]
Q (foam quality): ++++

O=C([O-])C(O)C(O)C(=O)O.[Na+] (stereo not drawn) [Sodium hydrogen tartrate]
Q (foam quality): ++++

CCCCCCCCCC[N+](C)(C)CCCCCCCCCC.[Cl-] [didecyldimethyl ammonium chloride]
Q (foam quality): +++++ and ++++ and ++ | Quality at given amount of (C) in pbw: +++++ and ++++ and ++

CCCCCCCCCCCCCCCCCC[N+](C)(C)CCC[Si](OC)(OC)OC.[Cl-] [dimethyloctadecyl(3-(trimethoxysilyl)propyl)ammonium chloride]
Quality at given amount of (C) in pbw [1]: +++ | Quality at given amount of (C) in pbw [2]: ++ | Quality at given amount of (C) in pbw [3]: + | Q (foam quality) (memory foam A2, 0.125 pbw (C)): ++++ | Q (foam quality) (memory foam A2, 0.25 pbw (C)): +++ | Q (foam quality) (memory foam A2, 0.5 pbw (C)): ++ | Q (foam quality) (memory foam A2, 1 pbw (C)): +

CCCCCCCCCCCCCC[N+](C)(C)CCC[Si](OC)(OC)OC.[Cl-] [dimethyltetradecyl(3-(trimethoxysilyl)propyl)ammonium chloride]
Quality at given amount of (C) in pbw (memory foam A1, 0.25 pbw (C), pbw of commercial product (active content in label)): +++++ | Quality at given amount of (C) in pbw [1]: +++++ | Q (foam quality) (memory foam A1, 0.5 pbw (C), no (B), (E) Arcol Polyol 1108 1 pbw): ++++ | Q (foam quality) (memory foam A1, 0.5 pbw (C), no (B), (E) Diglyme 1 pbw): ++++ | Q (foam quality) (memory foam A1, 0.5 pbw (C), no (B), (E) Triacetin 1 pbw): ++++ | Q (foam quality) (memory foam A1, 0.5 pbw (C), no (B), (E) Water, dH20 1 pbw): +++ | Q (foam quality) (memory foam A1, 0.5 pbw (C), no (B), no (E)): ++++ | Quality at given amount of (C) in pbw [2]: ++++ | Quality at given amount of (C) in pbw [3]: +++ | Q (foam quality) (memory foam A2, 0.125 pbw (C)): ++++ | Q (foam quality) (memory foam A2, 0.25 pbw (C)): ++++ | Q (foam quality) (memory foam A2, 0.5 pbw (C)): ++++ | Q (foam quality) (memory foam A2, 1 pbw (C)): +++

O=C([O-])CN(CCN(CC(=O)[O-])CC(=O)[O-])CC(=O)[O-].[Na+].[Na+].[Na+].[Na+] [tetrasodium EDTA salt, EDTA, tetrasodium]
Q (foam quality): ++++
